Measured values published in PubChem BioAssay AID493014 (National Center for Advancing Translational Sciences (NCATS), 2011).
The list shows a part of the results. These are further read-outs of the screen, such as a control signal, another cell line or another target. No call is given for them. The list favours compounds with an active or inconclusive main result. Potencies come from curve fits of mixed quality, noted in brackets.

Assay: qHTS Assay to Find Inhibitors of Chronic Active B-Cell Receptor Signaling
Settings: ABC-DLBCL IkBa-CBG/CBR reporter, luminescence ratio (green luciferase fused to IkBa over red control in TMD8 lymphoma cells), 4 h
Outline: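 Cell line TMD8 (human ABC DLBCL), stably expressing tet-inducible CBG68-IkBa fusion and CBR; IMDM/0.5% FBS; cpd up to 46 uM; dox induction, 4 h, 37C/5% CO2; dual luminescence; green/red ratio; MG132 control.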

[1] = measured here: CBR red luminescence, cell number
[2] = measured here: IkBa-CBG green luminescence

Row | Structure (SMILES) | AC50 [1] | AC50 [2]
1 | Cc1c(Cl)c(C(=O)Nc2nc3ccccc3n2CCN2CCCCC2)nn1C | 11.6 µM [falling, partial curve] | 
2 | NC(=O)c1cc2ccncc2c2ccccc12 | 11.2 µM [falling, partial curve, poor fit] | 
3 | CCCCC[C@H](O)/C=C/[C@@H]1[C@@H](C/C=C\CCCC(=O)O)[C@H]2CO[C@@H]1C2 |  | 10.3 µM [falling, partial curve]
4 | COC(=O)c1cc(=O)n2c(sc3ccccc32)c1C#N | 4.47 µM [falling, full curve] | 
5 | O=C(COC(=O)c1oc2ccccc2c1CSc1ccc(Cl)cc1)NC1CCCC1 | 20.6 µM [rising, single point] | 
6 | Nc1ccc2nc(-c3cc(Cl)c(N)c(Cl)c3)[nH]c2c1 | 5.17 µM [falling, partial curve] | 
7 | O=C(NCc1nnc(SCC(=O)N2CCN(c3ccccc3)CC2)o1)c1ccccc1 | 11.2 µM [rising, partial curve, poor fit] | 
8 | Brc1ccc(-c2csc(Nc3nc(-c4ccc(Br)cc4)cs3)n2)cc1 | 1.26 µM [rising, full curve, poor fit] | 
9 | CC(=O)c1ccc(C(=O)N2CCCC(CCC(=O)N(C)CCc3ccccn3)C2)s1 (stereo unspecified) | 35.5 µM [rising, single point] | 
10 | Cc1ccc(-c2nc3cc(N)ccc3o2)cc1Br | 4.47 µM [rising, partial curve, poor fit] | 
11 | COCCn1nnnc1C(c1cc2ccc(C)cc2[nH]c1=O)N(Cc1ccco1)Cc1cccs1 (stereo unspecified) | 28.2 µM [falling, single point] | 
12 | O=C1c2ccccc2NC(c2cccc([N+](=O)[O-])c2)N1CCc1ccccc1 (stereo unspecified) | 3.16 µM [rising, partial curve, poor fit] | 
13 | COc1ccc(N2CCN(c3cc(C)c4ccc(C)cc4n3)CC2)cc1 | 0.631 µM [rising, full curve, poor fit] | 
14 | BrCCOCCOc1ccc2ccccc2c1 | 11.6 µM [rising, partial curve] | 
15 | CCn1ncc(Br)c1C(=O)Nc1ncc(C)s1 | 7.08 µM [falling, partial curve] | 
16 | CCOC(=O)c1c(C)nc2sc(C(N)=O)c(N)c2c1-c1ccccc1 | 6.51 µM [rising, single point] | 
17 | O=C(NCc1ccccc1)c1cc[n+](CC(=O)c2cccs2)cc1 | 0.794 µM [rising, full curve, poor fit] | 
18 | CCOC(=O)c1ccccc1NS(=O)(=O)c1ccc(C)cc1 | 13 µM [rising, partial curve, poor fit] | 
19 | Cc1ccc(N(CC(=O)NC2CCCCC2)C(=O)CCC(=O)Nc2nccs2)cc1 | 35.5 µM [falling, single point] | 
20 | Cc1c(NC(=O)c2cccc(NC(=O)COc3ccccc3C#N)c2)c(=O)n(-c2ccccc2)n1C | 29.1 µM [falling, single point] | 
21 | O=C(N/N=C/c1cccc(Cl)c1)C1CCCC1 | 15.8 µM [falling, single point] | 
22 | COc1ccccc1CNC(=O)C1CCC(CNC(=O)[C@@H]2Cc3ccccc3CN2)CC1 (stereo partly specified) | 11.2 µM [falling, partial curve, poor fit] | 

Reprinted, compounds 14 to 16
Row | Structure (SMILES) | AC50 [1] | AC50 [2]
14 | BrCCOCCOc1ccc2ccccc2c1 | 11.6 µM [rising, partial curve] | 
15 | CCn1ncc(Br)c1C(=O)Nc1ncc(C)s1 | 7.08 µM [falling, partial curve] | 
16 | CCOC(=O)c1c(C)nc2sc(C(N)=O)c(N)c2c1-c1ccccc1 | 6.51 µM [rising, single point] | 

(listing goes on)

Row | Structure (SMILES) | AC50 [1] | AC50 [2]
23 | C=CCn1ccc(=NC=C(C#N)C#N)c2ccccc21 | 6.31 µM [falling, single point] | 
24 | O=C(CSc1nc2ccccc2c(=O)[nH]1)Nc1ccc(S(=O)(=O)N2CCCC2)cc1 | 20 µM [falling, partial curve, poor fit] | 
25 | COc1ccc(/C=C/C(=O)NC2CCCCC2C)cc1 (stereo unspecified) | 6.31 µM [falling, partial curve, poor fit] | 
26 | Oc1ccc2ccccc2c1/C=N/Nc1nnc(-c2ncc[nH]2)c2ccccc12 | 0.0291 µM [falling, full curve, poor fit] | 
27 | O=C(CSc1ccc(-c2ccncc2)nn1)c1ccccc1 | 35.5 µM [falling, partial curve, poor fit] | 
28 | C=CCn1cnc2c(sc3nc(C)cc(C)c32)c1=O | 20 µM [rising, single point] | 
29 | CCc1ccccc1NC(=O)c1ccc(NCCc2ccccc2)c([N+](=O)[O-])c1 | 2.59 µM [falling, full curve, poor fit] | 
30 | CCCC[n+]1ccn(-c2nc3ccccc3nc2[N-]S(=O)(=O)c2cccs2)c1 | 2.51 µM [falling, full curve, poor fit] | 
31 | Cc1ccccc1-n1c(SCC(N)=O)nc2sc(-c3ccccc3)cc2c1=O | 7.31 µM [falling, partial curve, poor fit] | 
32 | Cc1ccc2nc(-c3ccccc3N)[nH]c2c1 | 14.1 µM [falling, single point] | 
33 | CCc1ccc(C(=O)Nn2cnc3ccccc3c2=O)cc1 | 14.1 µM [falling, single point] | 
34 | N#Cc1c(NC(=O)Cn2c(=O)oc3ccccc32)oc(-c2ccccc2)c1-c1ccccc1 | 29.1 µM [falling, single point] | 
35 | O=c1oc2ccccc2cc1-c1cn2cccnc2n1 | 1.84 µM [falling, full curve] | 
36 | Fc1ccc(-c2ccc(/C=N/n3cnnc3)o2)cc1 | 20 µM [rising, single point] | 
37 | Cc1c(F)cccc1NC(=O)CCCCCC1NC(=O)NC1C (stereo unspecified) | 6.31 µM [falling, partial curve, poor fit] | 
38 | Cc1nnsc1-c1nnc(SCC(=O)c2ccc(C#N)cc2)n1C1CC1 | 8.91 µM [falling, partial curve] | 
39 | CC(=O)Nc1ccc(C(=O)CSc2nnc3scc(-c4ccccc4)n23)cc1 | 3.98 µM [rising, partial curve, poor fit] | 
40 | CCC(CO)Oc1cc(NC(=O)c2ccc(Cl)cc2)c2ncn(C(C)C)c2c1 (stereo unspecified) | 2.91 µM [rising, single point] | 
41 | COc1ccc(C(=O)Nc2ccc(O)cc2C(=O)O)cc1 | 1.58 µM [falling, full curve] | 
42 | O=C(Cc1ccccc1)N1CCc2[nH]nc(-c3ccccc3)c2C1 | 0.1 µM [rising, full curve, poor fit] | 
43 | CCN(CC)C(=O)CSc1nc2cc3c(cc2c(=O)n1CCCCCC(=O)NCc1ccc(OC)cc1)OCO3 | 15.8 µM [rising, partial curve, poor fit] | 
44 | N#CCCn1cc(/C=C2\NC(=S)N(c3ccccc3)C2=O)c(-c2ccc(F)cc2)n1 | 6.31 µM [falling, partial curve, poor fit] | 

Row | Structure (SMILES) | AC50 [1] | AC50 [2]
45 | COc1ccc(CN(C)C(=O)CNC(=O)c2ccc3ccccc3c2)c(OC)c1 | 25.1 µM [falling, single point] | 
46 | COc1ccc(-c2c(C#N)c(N)nc3c2CCc2ccccc2-3)cc1OC | 11.2 µM [falling, partial curve] | 
47 | Cc1csc(SC(C)c2nc3scc(-c4ccccc4)c3c(=O)[nH]2)n1 (stereo unspecified) | 11.2 µM [rising, partial curve, poor fit] | 
48 | O=C(NCc1ccccn1)C1CC(c2ccccc2O)=NO1 (stereo unspecified) | 11.2 µM [falling, single point] | 
49 | O=C(CN1C(=O)S/C(=C\c2ccccc2F)C1=O)NC1C=CS(=O)(=O)C1 (stereo unspecified) | 6.31 µM [falling, full curve] | 
50 | O=C(CC(c1ccco1)S(=O)(=O)c1ccccc1)c1ccc(F)cc1 (stereo unspecified) | 29.1 µM [falling, single point] | 
51 | COc1cc2c(cc1OC)C(c1ccc(Br)cc1)NC(=O)C2 (stereo unspecified) |  | 22.4 µM [falling, single point]
52 | CN(C)S(=O)(=O)c1cccn1-c1ncc(C(F)(F)F)cc1Cl | 29.1 µM [rising, single point] | 
53 | COc1ccccc1NS(=O)(=O)c1ccc2c(c1)n(C)c(=O)n2C | 7.31 µM [falling, partial curve] | 11.6 µM [rising, partial curve, poor fit]
54 | COc1ccc(C(=O)N2CCN(CCNC(=O)C(=O)Nc3ccc(F)cc3)CC2)cc1OC | 0.447 µM [falling, full curve, poor fit] | 
55 | O=C1/C(=C\c2ccncc2)CCc2ccccc21 | 20.6 µM [falling, single point] | 
56 | N=C1C=CC=C2C1=NC1(CCCCC1)N2O | 20.6 µM [rising, single point] | 
57 | COc1ccccc1CNC(=O)COC(=O)C1CCN(S(=O)(=O)c2ccccc2)CC1 | 29.1 µM [falling, single point] | 29.1 µM [rising, partial curve, poor fit]
58 | CC(C)(C)N/N=C/c1c(O)n(-c2ccc(Cl)cn2)c(=O)c2ccccc12 | 16.4 µM [falling, partial curve] | 
59 | CC[n+]1c(/C=C/N(C)c2ccccc2)oc2ccccc21 | 14.6 µM [falling, partial curve, poor fit] | 
60 | Cc1cc(C)n(Cc2ccc(NC(=O)c3ccc(COc4ccccc4Br)cc3)cc2)n1 | 14.1 µM [falling, partial curve, poor fit] | 
61 | CCOC(=O)c1nc2nc(-c3cccs3)cc(C(F)(F)F)n2n1 | 11.6 µM [rising, partial curve, poor fit] | 
62 | Cc1nc(Nc2ccc(S(N)(=O)=O)cc2)sc1-c1ccccc1 | 35.5 µM [rising, single point] | 
63 | CCC(=O)Nc1ccc(C(=O)Nc2cc(C)on2)cc1 | 0.82 µM [falling, full curve, poor fit] | 
64 | COC(=O)COc1ccc2c(-c3cccc([N+](=O)[O-])c3)cc(=O)oc2c1 | 15.8 µM [falling, partial curve] | 

Gathered by group, those above with a CF3 group
Row | Structure (SMILES) | AC50 [1] | AC50 [2]
52 | CN(C)S(=O)(=O)c1cccn1-c1ncc(C(F)(F)F)cc1Cl | 29.1 µM [rising, single point] | 
61 | CCOC(=O)c1nc2nc(-c3cccs3)cc(C(F)(F)F)n2n1 | 11.6 µM [rising, partial curve, poor fit] | 
